{"source": "PubChem BioAssay AID504784 – Drosophila RNAi Screening Center – 2011", "aim": "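Genome-wide knock-down for genes giving too much or too little stored lipid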 (primary screen)", "cells": "Drosophila Kc167 embryonic cells", "knock-down reagent": "long dsRNA against Drosophila genes, about 250 ng dsRNA per well", "time to read-out": "4 days", "challenge": "cells fed 400 µM oleic acid bound to BSA", "measurement": "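Microscope images give a droplet-to-nucleus area ratio, taken as log and converted to a screen-wide B-score; higher values mean greater lipid storage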", "reading the numbers": "droplet/nuclear area B-score: higher = more stored lipid (overstorage)", "note": "The screen tested about 17,000 reagents; shown is an unselected part of those with a known target gene and a result. 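Each column is one replicate's B-score; the combined score over replicates was not deposited, so single values may mislead.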 The numbers tell different reagents against one gene apart. Names joined by + are all predicted targets of the reagent. Not all columns of the deposit are shown."}
{"gene": "Prosap", "dsRNA no.": 1, "droplet/nuclear area B-score, replicate 1": -0.752}
{"gene": "Prosap", "dsRNA no.": 2, "droplet/nuclear area B-score, replicate 1": -2.75}
{"gene": "p", "dsRNA no.": 1, "droplet/nuclear area B-score, replicate 1": 0.739}
{"gene": "CG42588", "dsRNA no.": 1, "droplet/nuclear area B-score, replicate 1": -1.7}
{"gene": "CG42588", "dsRNA no.": 2, "droplet/nuclear area B-score, replicate 1": -0.419}
{"gene": "Nulp1", "dsRNA no.": 1, "droplet/nuclear area B-score, replicate 1": -0.0443}
{"gene": "sut2", "dsRNA no.": 1, "droplet/nuclear area B-score, replicate 1": 1.15}
{"gene": "CG7084", "dsRNA no.": 1, "droplet/nuclear area B-score, replicate 1": 0.776}
{"gene": "Gale", "dsRNA no.": 1, "droplet/nuclear area B-score, replicate 1": 3.43}
{"gene": "vsg", "dsRNA no.": 1, "droplet/nuclear area B-score, replicate 1": 0.545}
{"gene": "Su(H)", "dsRNA no.": 1, "droplet/nuclear area B-score, replicate 1": -1.81}
{"gene": "CG5418", "dsRNA no.": 1, "droplet/nuclear area B-score, replicate 1": 0.437}
{"gene": "Mau2", "dsRNA no.": 1, "droplet/nuclear area B-score, replicate 1": 0.411}
{"gene": "l(1)G0469", "dsRNA no.": 1, "droplet/nuclear area B-score, replicate 1": -0.57}
{"gene": "l(1)G0469", "dsRNA no.": 2, "droplet/nuclear area B-score, replicate 1": -0.853}
{"gene": "CG13004", "dsRNA no.": 1, "droplet/nuclear area B-score, replicate 1": -0.242}
{"gene": "CG5815", "dsRNA no.": 1, "droplet/nuclear area B-score, replicate 1": 0.194}
{"gene": "Gasz", "dsRNA no.": 1, "droplet/nuclear area B-score, replicate 1": 0.513}
{"gene": "CG31693", "dsRNA no.": 1, "droplet/nuclear area B-score, replicate 1": -1.28}

An excerpt of the results above, as a working copy:
{"gene": "CG42588", "dsRNA no.": 1, "droplet/nuclear area B-score, replicate 1": -1.7}
{"gene": "CG42588", "dsRNA no.": 2, "droplet/nuclear area B-score, replicate 1": -0.419}
{"gene": "Nulp1", "dsRNA no.": 1, "droplet/nuclear area B-score, replicate 1": -0.0443}
{"gene": "sut2", "dsRNA no.": 1, "droplet/nuclear area B-score, replicate 1": 1.15}
{"gene": "CG7084", "dsRNA no.": 1, "droplet/nuclear area B-score, replicate 1": 0.776}

Additional reagents follow:
{"gene": "CG3939", "dsRNA no.": 1, "droplet/nuclear area B-score, replicate 1": -0.793}
{"gene": "CG15919", "dsRNA no.": 1, "droplet/nuclear area B-score, replicate 1": 0.649}
{"gene": "ImpL2", "dsRNA no.": 1, "droplet/nuclear area B-score, replicate 1": 0.00925}
{"gene": "Prosbeta1", "dsRNA no.": 1, "droplet/nuclear area B-score, replicate 1": -0.562}
{"gene": "CG32462", "dsRNA no.": 1, "droplet/nuclear area B-score, replicate 1": 0.515}
{"gene": "CG17385", "dsRNA no.": 1, "droplet/nuclear area B-score, replicate 1": 2.96}
{"gene": "CG3777", "dsRNA no.": 1, "droplet/nuclear area B-score, replicate 1": -1.23}
{"gene": "CG12637", "dsRNA no.": 1, "droplet/nuclear area B-score, replicate 1": -0.491}
{"gene": "CG13308", "dsRNA no.": 1, "droplet/nuclear area B-score, replicate 1": -0.844}
{"gene": "eIF3a", "dsRNA no.": 1, "droplet/nuclear area B-score, replicate 1": 6.57}
{"gene": "CG9072", "dsRNA no.": 1, "droplet/nuclear area B-score, replicate 1": 0.0748}
{"gene": "vanin-like", "dsRNA no.": 1, "droplet/nuclear area B-score, replicate 1": -0.355}
{"gene": "CG6650", "dsRNA no.": 1, "droplet/nuclear area B-score, replicate 1": 0.896}
{"gene": "CG5823", "dsRNA no.": 1, "droplet/nuclear area B-score, replicate 1": -0.273}
{"gene": "CG12590", "dsRNA no.": 1, "droplet/nuclear area B-score, replicate 1": 1.04}
{"gene": "Ilp7", "dsRNA no.": 1, "droplet/nuclear area B-score, replicate 1": 1.44}
{"gene": "alphaSnap", "dsRNA no.": 1, "droplet/nuclear area B-score, replicate 1": 5.24}
{"gene": "Grl36b", "dsRNA no.": 1, "droplet/nuclear area B-score, replicate 1": -0.103}
{"gene": "CG13084", "dsRNA no.": 1, "droplet/nuclear area B-score, replicate 1": 0.0392}
{"gene": "CG14610 + asRNA:CR42738", "dsRNA no.": 1, "droplet/nuclear area B-score, replicate 1": -1.63}
{"gene": "CG1835", "dsRNA no.": 1, "droplet/nuclear area B-score, replicate 1": -0.545}
{"gene": "CG6985", "dsRNA no.": 1, "droplet/nuclear area B-score, replicate 1": -1.05}
{"gene": "Gem2", "dsRNA no.": 1, "droplet/nuclear area B-score, replicate 1": -0.0237}
{"gene": "Synj", "dsRNA no.": 1, "droplet/nuclear area B-score, replicate 1": 0.456}
{"gene": "MFS12", "dsRNA no.": 1, "droplet/nuclear area B-score, replicate 1": -0.0302}
{"gene": "CG13551", "dsRNA no.": 1, "droplet/nuclear area B-score, replicate 1": 0.122}
{"gene": "PIG-L", "dsRNA no.": 1, "droplet/nuclear area B-score, replicate 1": -1.05}
{"gene": "Acp53C14b", "dsRNA no.": 1, "droplet/nuclear area B-score, replicate 1": 0.292}
{"gene": "spdo", "dsRNA no.": 1, "droplet/nuclear area B-score, replicate 1": -1.04}
{"gene": "NFAT", "dsRNA no.": 1, "droplet/nuclear area B-score, replicate 1": 1.34}
{"gene": "CG12835 (retired record)", "dsRNA no.": 1, "droplet/nuclear area B-score, replicate 1": 0.314}
{"gene": "CG6785", "dsRNA no.": 1, "droplet/nuclear area B-score, replicate 1": -0.353}
